# Experimental data taken from PubChem BioAssay AID1259354 (Paczesny and Yang Labs, IUPUI and University of Michigan, 2018).
# Sequences of proteins named here, by UniProt entry; tags and fusion partners are left off. A change or cut given only in a name is not applied to a line headed by its entry.
# UniProt Q01638: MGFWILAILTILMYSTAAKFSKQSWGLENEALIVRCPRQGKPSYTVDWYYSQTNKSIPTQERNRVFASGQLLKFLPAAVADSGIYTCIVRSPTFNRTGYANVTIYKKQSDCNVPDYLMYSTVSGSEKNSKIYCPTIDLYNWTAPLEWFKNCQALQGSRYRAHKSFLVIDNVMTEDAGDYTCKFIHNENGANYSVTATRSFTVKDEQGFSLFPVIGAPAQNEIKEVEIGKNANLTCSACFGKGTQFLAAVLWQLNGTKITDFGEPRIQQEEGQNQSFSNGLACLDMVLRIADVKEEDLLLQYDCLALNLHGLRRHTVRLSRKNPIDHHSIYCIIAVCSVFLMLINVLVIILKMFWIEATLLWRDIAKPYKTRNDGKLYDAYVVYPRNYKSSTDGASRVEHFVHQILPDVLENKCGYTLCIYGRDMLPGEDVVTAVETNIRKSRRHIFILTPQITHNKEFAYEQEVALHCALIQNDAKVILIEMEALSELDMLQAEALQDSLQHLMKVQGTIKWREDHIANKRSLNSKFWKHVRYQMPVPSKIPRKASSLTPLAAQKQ
# Hit rate of the full screen: of about 78,000 compounds, about 1,800 (2.3%) were called active. The inconclusive results got no clear call from the source; some entries with a clear call stand among them for comparison. No stated cut-off is given here; in the data, active means inhibition above about 30%; inconclusive means mostly about 10% to 28%; inactive means weaker than that.
# Target: Interleukin-1 receptor-like 1 (Homo sapiens) (UniProt Q01638)
# Experiment: blocks human ST2 binding to IL-33, primary screen, biochemical, AlphaLISA (AID 1259354)
# Details: AlphaLISA ST2-Fc/biotin-IL-33 interaction, 1 h; at 17 µM, active compounds read high
row,Structure (SMILES),inhibition
1,Cc1cnc(C)c(-c2ccc(O)cc2)n1,inconclusive: 10%
2,CN(C)C(N)=NC(N)=Nc1ccccc1,inactive
3,O=C1CC(c2ccccc2Cl)CC2=C1C(c1ccc(F)cc1)Nc1ccccc1N2 (configuration not stated),inconclusive: 18%
4,O=C1CC(c2ccccc2Cl)CC2=C1C(c1coc3ccccc3c1=O)Nc1ccccc1N2 (configuration not stated),inconclusive: 20%
5,CCn1cc(C(=O)N2CCOCC2)c(=O)c2cc(S(=O)(=O)N3CCC(C)CC3)ccc21,inactive
6,Cc1ccc(-c2cc(O)c3c(c2)CN(Cc2ccoc2)CCO3)s1,inconclusive: 21%
7,O=C(CSc1nc2c(c(=O)n1-c1ccccc1)SCC2)NCc1ccco1,inconclusive: 19%
8,C=C[C@](C)(O)CC[C@H]1C(C)=CC(=O)[C@H]2C(C)(C)CCC[C@]12C,inconclusive: 28%
9,COc1cccc(C2C(C#N)=C(N)Oc3n[nH]c(C(C)(C)C)c32)c1OC (configuration not stated),inconclusive: 14%
10,Cc1cccc(-c2ccc(NC(=O)C3CCN(C(=O)[C@@H]4C[C@@H]5C=C[C@H]4C5)CC3)cc2)c1,inactive
11,Clc1ccc(-c2nnc3ccc(Cl)nn23)cc1,inactive
12,Cc1ccccc1CSC1=NCCN1C(=O)Cc1ccc(Cl)cc1,inconclusive: 10%
13,Cc1c(Cl)cccc1NCn1nnc2ccccc21,inconclusive: 15%
14,CC1=C(C#N)C(c2ccc(C)cc2)C2=C(CC(c3ccccc3)CC2=O)N1 (configuration not stated),inconclusive: 13%
15,CN(CC(=O)N1CCCc2c1c(=O)oc1ccc(O)cc21)Cc1ccccc1,inconclusive: 15%
16,Cc1c(NC(=O)C(c2ccccc2)c2ccccc2)cccc1[N+](=O)[O-],active: 44%
17,COc1ccc(NC(=O)c2cc(Cl)ccc2Cl)cc1[N+](=O)[O-],inconclusive: 20%
18,CC(C)n1cc(Cn2cnc(-c3ccccc3)c2-c2ccsc2)cn1,inconclusive: 10%
19,Cc1ccc(S(=O)(=O)c2ccc(Cl)cc2)cc1S(=O)(=O)NCc1ccco1,inconclusive: 10%
20,O=C(O)CC1(CC(=O)N[C@H]2CO[C@H]3[C@@H]2OC[C@@H]3n2nnnc2Oc2ccc(-n3ccnc3)cc2)CCCC1,inactive
21,COc1ccc(C(=O)CC2(O)C(=O)N(Cc3ccc(Cl)cc3)c3ccccc32)cc1OC (configuration not stated),inconclusive: 15%
22,CCOc1cccc(OCCOc2cccc(C)c2)c1,inactive
23,Cc1cc([N+](=O)[O-])nn1CCCC(=O)Nc1ccc(F)c(Cl)c1,inconclusive: 10%
24,COc1cc(C(=O)N2CCN(Cc3ccc(SC)cc3)CC2)cc(OC)c1OC,inconclusive: 10%

# Quoted at random: 2 compounds from above, in no set order.
row,Structure (SMILES),inhibition
22,CCOc1cccc(OCCOc2cccc(C)c2)c1,inactive
7,O=C(CSc1nc2c(c(=O)n1-c1ccccc1)SCC2)NCc1ccco1,inconclusive: 19%

# Next structures follow.

row,Structure (SMILES),inhibition
1,COc1ccc(C2Nc3ccccc3NC3=C2C(=O)CC(C)(C)C3)c(OC)c1OC (configuration not stated),inconclusive: 13%
2,Cc1cnc(CN(C)C(=O)c2cc(CN3CCC(Cc4ccccc4)CC3)on2)[nH]1,inconclusive: 22%
3,CCC(O)C1CCN(c2ccc(-c3ccccc3OC)nn2)CC1 (configuration not stated),inconclusive: 15%
4,O=C(NC1CCCN(c2ncccn2)C1)c1c(F)cccc1Cl (configuration not stated),inactive
5,Clc1nc(N2CCCCCC2)nc(N2CCCCCC2)n1,inactive
6,COc1ccc(C2CC(c3c(-c4ccccc4)c4cc(Cl)ccc4[nH]c3=O)=NO2)cc1 (configuration not stated),inactive
7,CCCn1cnnc1CNC(=O)CN(c1cccc(C)c1)S(C)(=O)=O,inconclusive: 19%
8,COc1ccc(N2C(N)=C(C#N)C(c3ccc(F)cc3)C3=C2CC(C)(C)CC3=O)c(OC)c1 (configuration not stated),inconclusive: 15%
9,O=C(c1ccc([N+](=O)[O-])cc1)N1CCCCCC1,inconclusive: 11%
10,Cn1cc(CN2CCCC2c2ccccn2)c2ccccc21 (configuration not stated),inconclusive: 10%
11,CCC(=O)N1c2ccccc2NC2=C(C(=O)CCC2)C1c1ccccc1 (configuration not stated),inconclusive: 12%
12,Cc1ccsc1C1(C(=O)N2CCC(O)(C(=O)O)CC2)CC1(C)C (configuration not stated),inactive
13,CC(CC(=O)N1CCCCC1)c1ccccc1 (configuration not stated),inconclusive: 24%
14,COc1ccc(CN2CCN(c3ccc(Cl)cc3)CC2)c(OC)c1OC,inconclusive: 10%
15,C=CCn1c(CCCNC(=O)c2ccc(Cl)cc2)nc2ccccc21,inactive
16,Cc1cccc2oc(-c3cc(N=Cc4ccc([N+](=O)[O-])cc4)ccc3O)nc12,active: 30%
17,O=C(N[C@@H]1CN(C(=O)NCc2ccccc2)CCC[C@H]1O)c1ccc(OCCN2CCCC2)cc1,inconclusive: 22%
18,CCOC(=O)C1=C(C)NC(C)=C(C(=O)OC)C1c1cccc([N+](=O)[O-])c1 (configuration not stated),inconclusive: 16%
19,COc1ccc(-n2cnnc2CCN)cc1,inconclusive: 11%
20,CCCNC(=O)Cn1c(=O)n(CC2CCC(C(=O)NCCC)CC2)c(=O)c2sccc21 (configuration not stated),inactive
21,O=C1CC2CS(=O)(=O)CC2N1c1ccc(Oc2ccccc2)cc1 (configuration not stated),inconclusive: 12%
22,CCCC(=O)Nc1ccc(NC(=O)c2cc(C(C)C)[nH]n2)cc1OC,inconclusive: 17%
23,O=C1C2C3C=CC(C3)C2C(=O)N1c1ccc(Cl)cc1F (configuration not stated),inconclusive: 12%

# Of the compounds above, these contain two or more sulfur atoms.
row,Structure (SMILES),inhibition
7,O=C(CSc1nc2c(c(=O)n1-c1ccccc1)SCC2)NCc1ccco1,inconclusive: 19%
19,Cc1ccc(S(=O)(=O)c2ccc(Cl)cc2)cc1S(=O)(=O)NCc1ccco1,inconclusive: 10%
